Results from patent US7560262B2, “Polynucleotide sequences encoding alkaline α-galactosidases and methods of using same” (The State of Israel - Ministry of Agriculture & Rural …, priority 2002, dated 2009).
Some results were stated once for a whole list of compounds, not compound by compound.

Assay: pH and temperature dependence of α-galactosidase activity of recombinant Aga-I and Aga-II
Type: biochemical
Conditions: extracts of transformed E. coli, pNPG, FIG. 4
Procedure: α-galactosidase assay of E. coli extracts—α-galactosidase activity was assayed as described by Smart and Pharr [Smart and Pharr (1980) Plant Physiol. 66:731-734] and as performed by Gao and Schaffer (1999) Plant Physiol. 119:979-987]. Reaction was initiated by adding 50 μl enzyme aliquot to 200 μl McIlvaine buffer (made by mixing stock solutions of 0.1M citric acid and 0.2M sodium hydrogen phosphate to achieve pH of 5.0 and 7.0 for the assay of acid and alkaline activity, respectively) and 50 μl substrate (final concentration, 5 mM for pNPG and 10 mM for the natural substrates). […] Substrates used were the synthetic substrates based on p-nitrophenol (pNP-sugars), including the pNPa-gal (Sigma) and the natural substrates stachyose, raffinose and melibiose. In addition, substrate concentration dependence of the reaction was measured by varying the substrate concentrations from 0-10 mM. Km and Vmax values were calculated using Lineweaver-Burk plots.

Row | Molecule | pH range of elevated α-galactosidase activity
1 | Aga-I: Cucumis melo alkaline-α-galactosidase I, SEQ ID NO: 6, encoded by SEQ ID NO: 5 (protein, Cucumis melo) MTVGAGITISDANLTVLGNRVLSDVHNNITLTAAPGGGVMNGAFIGVQSDQIGSRRVFPIGKLIGLRFLCAFRFKLWWMTQRMGCSGQEVPFETQFLVVETRDGSNIAGNGEEGDAVYTVFLPILEGDFRAVLQGNDNNEIEICLESGDPSVDGFEGSHLVFVGAGSDPFETITYAVKSVEKHLQTFAHRERKKMPDILNWFGWCTWDAFYTDVTSDGVKKGLESFENGGIPPKFVIIDDGWQSVAKDATSADCKADNTANFANRLTHIKENYKFQKDGKEGERIENPALGLQHIVSYMKEKHATKYVYVWHAITGYWGGVSAGVKEMEQYESKIAYPVASPGVESNEPCDALNSITKTGLGLVNPEKVFNFYNEQHSYLASAGVDGVKVDVQNILETLGAGHGGRVKLARKYHQALEASISRNFQDNGIISCMSHNTDGLYSSKRNAVIRASDDFWPRDPASHTIHIASVAYNSLFLGEFMQPDWDMFHSLHPMAEYHGAARAVGGCAIYVSDKPGQHDFNLLKKLVLPDGSILRAKLPGRPTKDCLFTDPARDGKSLLKIWNLNDLSGVVGVFNCQGAGWCKVGKKNLIHDENPDTITGVIRAKDVSYLWKIAGESWTGDAVIFSHLAGEVVYLPQDASMPITLKPREFDVFTVVPVKELVNDIKFAPIGLIKMFNSGGAVKEMNHQPGSSNVSLKVRGSGPFGAYSSSKPKRVAVDSEEVEFMYDEGGLITIDLKVPEKELYLWDIRIEL | 7-9 pH
2 | Aga-II: Cucumis melo alkaline α-galactosidase II, SEQ ID NO: 10, encoded by SEQ ID NO: 9 (protein, Cucumis melo) MTVTPKISVNDGNLVVHGKTILTGVPDNIVLTPGSGLGLVAGAFIGATASNSKSLHVFPVGVLEGTRFLCCFRFKLWWMTQRMGTSGRDIPFETQFLLMESKGNDGEDPDNSSTIYTVFLPLLEGQFRAALQGNEKNEMEICLESGDNTVETNQGLSLVYMHAGTNPFEVITQAVKAVEKHTQTFLHREKKKLPSFLDWFGWCTWDAFYTDVTAEGVVEGLKSLSEGGAPPKFLIIDDGWQQIEAKPKDADCVVQEGAQFASRLSGIKENHKFQKNGNNYDQVPGLKVVVDDAKKQHKVKFVYAWHALAGYWGGVKPASPGMEHYDSALAYPVQSPGMLGNQPDIVVDSLAVHGIGLVHPKKVFNFYNELHSYLASCGIDGVKVDVQNIIETLGAGHGGRVTLTRSYHQALEASIARNFSDNGCIACMCHNTDSLYSAKQTAVVRASDDYYPRDPASHTIHISSVAYNSLFLGEFMQPDWDMFHSLHPTAEYHGAARAIGGCAIYVSDKPGNHNFDLLKKLVLPDGSVLRAQLPGRPTRDSLFNDPARDGTSLLKIWNMNKCSGVVGVFNCQGAGWCRITKKTRIHDESPGTLTTSVRAADVDAISQVAGADWKGDTIVYAYRSGDLIRLPKGASVPVTLKVLEYDLLHISPLKDIASNISFAPIGLLDMFNTGGAVEQVNVQVVEPIPEFDGEVASELTCSLPNDRPPTATITMKARGCRRFGLYSSQRPLKCSVDKVDVDFVYDEVTGLVTFEIPIPTEEMYRWNIEIQV | 7-9 pH
